# Experimental data published in article PMC7539533.
# These are yes or no findings as the source states them, for the method shown. Binding seen in cells or lysates may run through a third protein. Binding calls can cover weak binding; strength is not graded here. Sequences can lack the tags named with a protein.
# Biological target: YFP-NEDD4-WW, WW domains of NEDD4 fused to EYFP
# Test: co-IP; HEK293T transfected with YFP-NEDD4-WW, myc-GOPC and untagged pUL56 or pUL56-AAXA; IP with YFP affinity resin; immunoblot
binder,measurement,value
"untagged pUL56 (WT) (protein, UniProt P10240 1-234) MASEAAQPDAGLWSAGNAFADPPPPYDSLSGRNEGPFVVIDLDTPTDPPPPYSAGPLLSVPIPPTSSGEGEASERGRSRQAAQRAARRARRRAERRAQRRSFGPGGLLATPLFLPETRLVAPPDITRDLLSGLPTYAEAMSDHPPTYATVVAVRSTEQPSGALAPDDQRRTQNSGAWRPPRVNSRELYRAQRAARGSSDHAPYRRQGCCGVVWRHAVFGVVAIVVVIILVFLWR",binding,binds
